Data from publication doi:10.1101/2023.06.21.545928.
Results are given in words; binding and its absence hold for the method and conditions named. Binding seen in cells or lysates may run through a third protein. Some entries that bind do so weakly or less than the wild type.

The chains behind the UniProt entries cited, without tags or fusion partners. Where a name states a change or a piece, a line headed by the entry shows the natural chain unless it says otherwise. Residues count along the entry.
UniProt P25963, whole entry: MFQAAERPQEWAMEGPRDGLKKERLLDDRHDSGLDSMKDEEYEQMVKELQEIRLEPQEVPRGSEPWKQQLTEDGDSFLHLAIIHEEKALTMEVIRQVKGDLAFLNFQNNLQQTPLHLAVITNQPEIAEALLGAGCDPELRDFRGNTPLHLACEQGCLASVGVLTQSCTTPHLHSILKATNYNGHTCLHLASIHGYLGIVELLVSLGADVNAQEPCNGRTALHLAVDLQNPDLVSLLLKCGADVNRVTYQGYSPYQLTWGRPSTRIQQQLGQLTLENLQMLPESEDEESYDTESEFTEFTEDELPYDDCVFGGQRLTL
UniProt P19838, 1-433: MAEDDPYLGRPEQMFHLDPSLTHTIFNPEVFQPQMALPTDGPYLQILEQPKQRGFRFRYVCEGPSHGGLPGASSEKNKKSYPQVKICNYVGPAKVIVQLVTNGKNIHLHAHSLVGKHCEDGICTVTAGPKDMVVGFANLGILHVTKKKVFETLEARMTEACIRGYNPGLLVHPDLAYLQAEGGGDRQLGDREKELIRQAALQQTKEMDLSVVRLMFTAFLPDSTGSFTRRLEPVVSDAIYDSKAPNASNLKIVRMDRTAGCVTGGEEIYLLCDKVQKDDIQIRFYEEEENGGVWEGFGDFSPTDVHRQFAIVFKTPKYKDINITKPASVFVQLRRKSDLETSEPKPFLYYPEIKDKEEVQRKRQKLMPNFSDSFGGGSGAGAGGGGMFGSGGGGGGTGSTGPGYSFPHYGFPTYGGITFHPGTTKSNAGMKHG
UniProt Q04206, whole entry: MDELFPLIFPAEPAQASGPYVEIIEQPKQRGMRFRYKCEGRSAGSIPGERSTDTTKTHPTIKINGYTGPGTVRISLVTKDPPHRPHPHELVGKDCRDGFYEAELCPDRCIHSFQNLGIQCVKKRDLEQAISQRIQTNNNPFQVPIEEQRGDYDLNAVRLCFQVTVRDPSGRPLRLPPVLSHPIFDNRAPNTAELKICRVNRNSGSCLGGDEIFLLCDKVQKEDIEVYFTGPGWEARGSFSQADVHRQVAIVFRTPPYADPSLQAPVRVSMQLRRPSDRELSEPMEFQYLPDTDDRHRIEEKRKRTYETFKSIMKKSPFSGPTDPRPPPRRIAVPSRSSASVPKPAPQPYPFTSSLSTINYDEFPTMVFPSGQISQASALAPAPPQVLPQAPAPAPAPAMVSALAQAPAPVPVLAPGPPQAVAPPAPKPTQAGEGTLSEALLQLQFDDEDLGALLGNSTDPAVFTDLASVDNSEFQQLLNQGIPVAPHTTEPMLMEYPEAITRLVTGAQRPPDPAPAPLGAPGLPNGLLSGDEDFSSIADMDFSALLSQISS

Assays:
Assay in all cases: co-IP
[1] = molecular target: IκBα WT from IκBα knock-in HCT116 cells (human) (UniProt P25963)
[2] = molecular target: HA-IκBα H84A, E85A, E86A, N108A, Q112A compose mutant (human) (UniProt P25963)
[3] = molecular target: IκBα D75A single point mutant (human) (UniProt P25963)
[4] = molecular target: IκBα/β-mimic (HEE to HQH), ectopically expressed (human) (UniProt P25963)
[5] = molecular target: IκBα/β-mimic (HEE to HQH) from IκBα knock-in HCT116 cells (human) (UniProt P25963)
[6] = molecular target: IκBα N108A single point mutant (human) (UniProt P25963)
[7] = molecular target: IκBα N108A from IκBα knock-in HCT116 cells (human) (UniProt P25963)
[8] = molecular target: HA-IκBα H84A, E85A, E86A compose mutant (M3) (human) (UniProt P25963)

## NF-κB p50, endogenous (from UniProt P19838)
[1]
  binding: binds
[2]
  binding: no binding
[3]
  binding: no binding
[4]
  binding: binds
[5]
  binding: binds
[6]
  binding: no binding
[7]
  binding: no binding
[8]
  binding: binds

## NF-κB/p65, endogenous (from UniProt Q04206 1-551)
[2]
  binding: no binding
[3]
  binding: no binding
[4]
  binding: binds
[5]
  binding: binds
[6]
  binding: no binding
[7]
  binding: no binding
[8]
  binding: binds
